Here are results for one compound from patent US11458099B2, “Inhalable antimicrobial particles and methods of making the same” (The Penn State Research Foundation, priority 2017, dated 2022).

This assay relates to S. aureus (+). The experiment in a line: MIC of VAN, NGVAN, NG (broth dilution). As to conditions: Staphylococcus aureus, drug or equivalent concentration of drug loaded into nanogels. The class given is cell-based. The method, then: 2× Dilutions of treatments in broth were plated into a U-bottom 96 well plate. Overnight cultures of Pseudomonas aeruginosa, Escherichia coli, Acinetobacter baumannii, Salmonella enterica and Staphylococcus aureus were incubated in cation adjusted Mueller-Hinton broth as advised by CLSI. Bacteria were diluted to an OD600 of 0.002 and plated in a 1:1 volume ratio with the treatments. These cultures were incubated overnight and MIC values were assessed by visual evaluation of growth inhibition when compared to untreated samples.

Turning to `CN[C@H](CC(C)C)C(=O)N[C@H]1C(=O)N[C@@H](CC(N)=O)C(=O)N[C@H]2C(=O)N[C@H]3C(=O)N[C@H](C(=O)N[C@H](C(=O)O)c4cc(O)cc(O)c4-c4cc3ccc4O)[C@H](O)c3ccc(c(Cl)c3)Oc3cc2cc(c3O[C@@H]2O[C@H](CO)[C@@H](O)[C@H](O)[C@H]2O[C@H]2C[C@](C)(N)[C@H](O)[C@H](C)O2)Oc2ccc(cc2Cl)[C@H]1O` [VAN, Vancomycin], the MIC was determined as 4.5 µg/mL.
